The other results are listed elsewhere or left out. Repeats are few or missing, and single values can be far off.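 Labelled rat cortical synaptosomes were engulfed by primary human fetal astrocytes. Engulfment equaled a red/green ratio, corrected for calcein live-cell signal and normalized to the plate median. Compounds were toxic when calcein dropped over 30%, and reduced phagocytosis when below 70% of the median above 5 µM.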

This test concerns Human fetal astrocytes. Kind of test: synaptosome phagocytosis (pHrodo/calcein intensity ratio) relative to plate median of data wells; higher = more phagocytosis. The conditions noted are these: 2.78 µM; 24 h.
Regarding `C[C@@H]1CC[C@@]2(OC1)O[C@H]1C[C@H]3[C@@H]4CC[C@H]5C[C@@H](O)CC[C@]5(C)[C@H]4CC[C@]3(C)[C@H]1[C@@H]2C`, the synaptosome phagocytosis was 115%.
Next, `c1coc(CNc2ncnc3[nH]cnc23)c1`: 110%; `OC(c1cc(C(F)(F)F)nc2c(C(F)(F)F)cccc12)C1CCCCN1` (stereo not drawn): 92.1%.
Next, `Oc1c(Cl)cc(Cl)c(Cl)c1Cc1c(O)c(Cl)cc(Cl)c1Cl`: 84.3%; `O=C(O)CCCC[C@@H]1SC[C@@H]2NC(=O)N[C@@H]21`: 96.5%; `O=c1cc(-c2ccc(O)c(O)c2)oc2cc(O)cc(O)c12`: 100%.
For `CCC(CCC(C)C1CCC2C3CCC4CC(O)CCC4(C)C3CCC12C)C(C)C` (stereo not drawn) the value was 102%; for `Nc1nc(=S)c2ncn([C@@H]3O[C@H](CO)[C@@H](O)[C@H]3O)c2[nH]1`, 22.9%.
In the case of `C=CC(C1=CC(=O)C(OC)=CC1=O)c1ccc(O)cc1` (stereo not drawn), the synaptosome phagocytosis was 127%.
Next, `O=C1C(CC[S+]([O-])c2ccccc2)C(=O)N(c2ccccc2)N1c1ccccc1` (stereo not drawn): 103%; `CN1CCCN=C1/C=C/c1cccc(O)c1`: 119%.
`O=C(O)c1ccc(S(=O)(=O)N(Cl)Cl)cc1`: the synaptosome phagocytosis is 111%.
For `COc1ccc(-c2cc(=O)c3c(OC)c(OC)c(OC)c(OC)c3o2)cc1` the value was 96%; for `COc1ccc2oc(-c3ccccc3)c(OC)c(=O)c2c1`, 77.2%.
Turning to `CN1CCc2c(c3ccccc3n2Cc2ccccc2)C1`, the synaptosome phagocytosis is 90.6%.
For `CC[C@@]1(O)C(=O)OCc2c1cc1n(c2=O)Cc2cc3c(CN(C)C)c(O)ccc3nc2-1` the value was 90.1%; for `N=C(N)NCCN1CCCCCCC1`, 114%.
Next, `N[C@@H](COCc1ccccc1)C(=O)O`: 101%.
